# In US11395857B2 (PROVINCIAL HEALTH SERVICES AUTHORITY, priority 2018, dated 2022):
# Test: general procedure: Fmoc solid-phase peptide synthesis; Fmoc-Rink-Amide-MBHA resin; HATU/HOAt/DIEA
# Conditions: whole synthesis
substance,measurement,value
DOTA-Pip-Nle-cyclo[Asp-(N-Me-His)-D-Phe-(N-Me)-Arg-(N-Me-Trp)-(N-Me-Lys)]—NH2,final purity (method not given),>99%
